Laboratory results published in PMC4389316, “C-terminal residues of skeletal muscle calsequestrin are essential for calcium binding and for skeletal ryanodine receptor inhibition” (Skeletal Muscle, 2015).
These are yes or no findings as the source states them, for the method shown. Some results given as binding are weak or reduced against the parent protein; the word gives no strength.

Amino acid sequences for entries named in this document (tags omitted). A change or cut given only in a name is not applied to a line headed by its entry. Residues count along the entry.
UniProt P07221: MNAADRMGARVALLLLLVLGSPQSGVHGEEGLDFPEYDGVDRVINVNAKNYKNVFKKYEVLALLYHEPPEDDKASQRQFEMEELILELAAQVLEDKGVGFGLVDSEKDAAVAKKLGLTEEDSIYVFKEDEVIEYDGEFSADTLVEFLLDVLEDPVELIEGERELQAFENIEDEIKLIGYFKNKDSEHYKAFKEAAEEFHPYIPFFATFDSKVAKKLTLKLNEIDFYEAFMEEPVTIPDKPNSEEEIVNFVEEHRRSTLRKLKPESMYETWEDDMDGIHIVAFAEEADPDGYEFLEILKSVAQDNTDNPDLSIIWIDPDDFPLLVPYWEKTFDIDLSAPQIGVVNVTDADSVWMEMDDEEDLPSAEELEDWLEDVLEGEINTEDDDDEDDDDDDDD
CSQ1∆C7 (rabbit CSQ1 lacking the final seven C-terminal residues 361-367): residues 29-388 of P07221
CSQ1_(∆C14) (rabbit CSQ1 lacking the whole C-terminal tail, residues 354-367): residues 29-381 of P07221

What was measured:
[1] = molecular target: CSQ1_(∆C14) (rabbit CSQ1 lacking the whole C-terminal tail, residues 354-367) (rabbit) (UniProt P07221); experiment: co-IP; as a1 but at 100 μM Ca2+; CSQ1 construct coupled to anti-CSQ1/protein A/G, exposed to purified trisk95; Western blot; both purified
[2] = molecular target: CSQ1∆C7 (rabbit CSQ1 lacking the final seven C-terminal residues 361-367) (rabbit) (UniProt P07221); experiment: as above
[3] = molecular target: CSQ1_(∆C14) (rabbit CSQ1 lacking the whole C-terminal tail, residues 354-367) (rabbit) (UniProt P07221); experiment: co-IP; purified CSQ1 construct coupled to anti-CSQ1/protein A/G agarose (Pierce kit), then exposed to purified trisk95 or junctin; 20 mM MOPS, 150 mM NaCl, 1 mM CaCl2, pH 7.4; CSQ1 to partner 2:1 by weight; Western blot; both purified
[4] = molecular target: CSQ1∆C7 (rabbit CSQ1 lacking the final seven C-terminal residues 361-367) (rabbit) (UniProt P07221); experiment: as above

B1: skeletal triadin 95 kDa (trisk95) (protein, UniProt Q28820 1-706)
chain: MTEITAEGNASTTTTVIDSKNGSVPKSPGKVLKRTVTEDLVTTFSSPAAWLLVIALIITWSAVAVVMFDLVDYKNFSASSIAKMGSDPLKLVHDAVEETTDWIYGFFSLLSDIISSDGDEEDDEGDEDTAKGEIEEPPLKRKDIHKEKIEKQEKPERKIPTKVVHKEKEKEKEKVKEKEKPEKKATHKEKLEKKEKPETKTVTKEEKKARTKEKIEEKTKKEVKGVKQEKVKQTVAKAKEVQKTPKPKEKESKETAAVSKQEQKDQYAFCRYMIDIFVHGDLKPGQSPAIPPPSPTEQASRPTPALPTPEEKEGEKKKAEKKVTTETKKKAEKEDAKKKSEKETDIDMKKKEPGKSPDTKPGTVKVTTQAATKKDEKKEDSKKAKKPAEEQPKGKKQEKKEKHEEPAKSTKKEHAAPSEKQAKAKIERKEEVSAASTKKAVPAKKEEKTTKTVEQETRKEKPGKISSVLKDKELTKEKEVKVPASLKEKGSETKKDEKTSKPEPQIKKEEKPGKEVKPKPPQPQIKKEEKPEQDIMKPEKTALHGKPEEKVLKQVKAVTTEKHVKPKPAKKAEHQEKEPPSIKTDKPKSTSKGMPEVTESGKKKIEKSEKEIKVPARRESHQLQNVTKAEKPARGSKEGFEDVPASKKAKEEAEEVSSTKKQKSPISFFQCVYLDGYNGYGFQFPVTPAQYPGESSGKPNSPGPKQ
- binding [1]: no binding
- binding [2]: binds weakly
- binding [3]: no binding
- binding [4]: binds weakly
